Measurements published in PubChem BioAssay AID504444 (National Center for Advancing Translational Sciences (NCATS), 2011).
Hit rate of the full screen: of about 360,000 compounds, about 7,500 (2.1%) were called active. Inconclusive results, whose numbers are uncertain, are shown with a selection of clear calls. Calls come from the whole dose curve; as a rule, active = well fitted inhibition curve with a large enough effect; inconclusive = small, poorly fitted or top-dose-only effect, or effect the other way; inactive = flat fitted curve, though single readings scatter. A potency beside an inconclusive call is a rough fit, not a confirmed value.

Experiment: Nrf2 qHTS screen for inhibitors; note: nearly all actives have a fitted effect of over 60% in size
Conditions: A549 ARE-Fluc reporter, luciferase luminescence, 18-24 h; activity change, negative = inhibition: at 46 µM (top of the series)
Outline: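 Nrf2 function is reported as luminescence of an ARE-controlled luciferase in A549 cells. Compounds were tested at several concentrations, and a CellTiter-Fluor read on the same wells flagged cytotoxicity.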
% is set by controls: 0 for no effect and ±100 for the full control effect; potency is the fitted concentration of half-maximal effect.

| SMILES | Potency | activity change, negative = inhibition |
| --- | --- | --- |
| O=C(CCCCC(=O)Nc1ccccc1Cl)Nc1ccccc1Cl | inconclusive: 0.146 µM [falling, full curve, poor fit] |  |
| COc1cc2ccccc2cc1C(=O)Nc1ccc(N2CCOCC2)cc1 | inconclusive: 1.84 µM [falling, full curve, poor fit] |  |
| O=C(Nc1ccncc1)C1CCCN(S(=O)(=O)c2cccc3cccnc23)C1 (stereo unspecified) | inconclusive: 2.06 µM [falling, partial curve, poor fit] |  |
| CCOC(=O)c1cccc(NC(=O)CSc2cc(=O)n(C)c3ccccc23)c1 | inconclusive: 5.8 µM [falling, full curve] |  |
| O=C(Cn1nnc(-c2ccccc2)n1)Nc1cccc(S(=O)(=O)N2CCCC2)c1 | active: 16.4 µM |  |
| CSc1ccccc1OCc1cc(C(=O)N2CCC[C@H]2C(N)=O)no1 |  | inactive: 9.73% |
| COc1ccc(C)cc1NS(=O)(=O)c1ccc2c(c1)N(C)CCO2 | inconclusive: 11.6 µM [falling, partial curve, poor fit] |  |
| c1ccc(CCc2ccccc2-c2nc(-c3cccnc3)no2)cc1 |  | inactive: 5.09% |
| O=C(O)c1ccc(COc2ccccc2/C=C2\NC(=O)N(Cc3ccccc3F)C2=O)cc1 | inconclusive: 20.6 µM [falling, partial curve, poor fit] |  |
| O=C(Nc1cccc2c1CCCC2)c1ccncc1 | inconclusive: 18.4 µM [activator, partial curve] |  |
| COC(=O)c1ccccc1NC(=O)CNc1ccc(F)c(S(=O)(=O)N2CCOCC2)c1 | inconclusive: 29.1 µM [falling, partial curve, poor fit] |  |
| Cc1nn(-c2ccc3ccccc3c2)c(=O)c2ccccc12 | inconclusive: 2.91 µM [activator, single point] |  |
| COCCNc1nc(N)c([N+](=O)[O-])c(Nc2ccc(F)cc2)n1 | inconclusive: 6.51 µM [activator, single point] |  |
| CC(C)CC(=O)Nc1ccc2c(c1)OCO2 | inconclusive: 23.1 µM [activator, partial curve] |  |
| O=[N+]([O-])c1ccccc1/C=C/c1ccc2ccccc2n1 | inconclusive: 9.2 µM [activator, partial curve] |  |
| COC(=O)c1ccccc1N/C=C/C(=O)c1ccc(Br)cc1 | inconclusive: 16.4 µM [activator, partial curve] |  |
| CC1CCN(S(=O)(=O)c2ccc(NC(=O)Cc3cccs3)cc2)CC1 | inconclusive: 25.9 µM [falling, partial curve, poor fit] |  |
| Cc1ccc(-c2nnc(Nc3ccc4c(c3)OCO4)c3ccccc23)cc1S(=O)(=O)NCCO | inconclusive: 25.9 µM [falling, single point] |  |
| O=C(COc1ccc(Cl)cc1)Nc1ccc2nc(SCC(=O)N3CCOCC3)sc2c1 | inconclusive: 25.9 µM [falling, single point] |  |
| Cc1ccc(Nc2nc(CSc3nnc(-c4ccccc4C)n3C)cs2)cc1 | inconclusive: 32.6 µM [falling, single point] |  |
| CCOC(=O)c1cc(-c2ccc(N3CCOCC3)cc2)nn1-c1ccc(F)cc1F | inconclusive: 16.4 µM [falling, single point] |  |
| Fc1ccc(Cn2c(-c3cscn3)nc3ccccc32)c(Cl)c1 | inconclusive: 29.1 µM [activator, single point] |  |

No new results follow: three of the compounds above.

| SMILES | Potency | activity change, negative = inhibition |
| --- | --- | --- |
| COC(=O)c1ccccc1NC(=O)CNc1ccc(F)c(S(=O)(=O)N2CCOCC2)c1 | inconclusive: 29.1 µM [falling, partial curve, poor fit] |  |
| Cc1nn(-c2ccc3ccccc3c2)c(=O)c2ccccc12 | inconclusive: 2.91 µM [activator, single point] |  |
| COCCNc1nc(N)c([N+](=O)[O-])c(Nc2ccc(F)cc2)n1 | inconclusive: 6.51 µM [activator, single point] |  |

Going on with the list.

| SMILES | Potency | activity change, negative = inhibition |
| --- | --- | --- |
| CCOC(=O)c1c(NC(=O)CC)sc2c1CCN(Cc1ccccc1)C2 |  | inactive: 0% |
| Cc1ccc(NC(=O)c2ccco2)cc1C | inconclusive: 7.31 µM [activator, partial curve] |  |
| Cc1ccc(-n2ncc(C(=O)NCc3ccccn3)c2C2CCN(C(=O)OC(C)(C)C)CC2)cc1C | inconclusive: 29.1 µM [falling, single point] |  |
| CSc1ccc(CN(C)C(=O)c2cccc(S(=O)(=O)N3CCN(Cc4ccccc4)CC3)c2)cc1 | active: 5.8 µM |  |
| Cc1ccc(S(=O)(=O)N2CCN(c3ccnc4cc(Cl)ccc34)CC2)cc1 | inconclusive: 29.1 µM [falling, single point] |  |
| CC1=CCC2C(=O)N(CCc3c[nH]c4ccccc34)C(=O)C2C1 (stereo unspecified) | inconclusive: 20.6 µM [activator, single point] |  |
| CCc1nc2ccccc2n1CCCCOc1cccc(C)c1 | inconclusive: 18.4 µM [falling, single point] |  |
| COc1ccc(-c2nc(CSCC(=O)NC3CCCc4ccccc43)c(C)o2)cc1OC (stereo unspecified) | inconclusive: 29.1 µM [falling, single point] |  |
| COc1ccc(OC)c(-c2nnc3n2N=C(c2ccc(OC)c(OC)c2)CS3)c1 | inconclusive: 10.3 µM [activator, partial curve, poor fit] |  |
| Cn1c(NN)nc2sc3c(c2c1=O)CCC3 | inconclusive: 11.6 µM [falling, partial curve, poor fit] |  |
| CC(C)(C)c1ccc(S(=O)(=O)c2cnc(SCC(=O)Nc3ccc4c(c3)OCCO4)[nH]c2=O)cc1 |  | inactive: 10.6% |
| CCCc1cc(=O)oc2cc(C)cc(OCC(=O)Nc3cccnc3)c12 |  | inactive: 9.89% |
| CCOc1cc(C=C2C(=O)c3ccccc3C2=O)ccc1OCC(=O)Nc1ccc(C)cc1 |  | inactive: 4.23% |
| Cc1ccc(C)c(S(=O)(=O)N2CCN(C(=O)C(C)Sc3ccccc3)CC2)c1 (stereo unspecified) | inconclusive: 25.9 µM [falling, partial curve, poor fit] |  |
| Cc1cc(Oc2ccccc2)nc(SCC(=O)Nc2ccccc2)n1 | inconclusive: 29.1 µM [falling, single point] |  |
| COc1cccc(NS(=O)(=O)c2ccc3c(c2)NC(=O)C(C)S3)c1 (stereo unspecified) | active: 20.6 µM |  |
| Cc1c(C(=O)Nc2ccccn2)oc2c(Cl)cccc12 | inconclusive: 11.6 µM [activator, partial curve] |  |
| CC(C)N(C(=S)Nc1ccc(S(=O)(=O)N2CCOCC2)cc1)c1ccccc1 |  | inactive: -6.08% |
| Cc1nn(C)cc1C(C)NC(=O)c1cc(COc2cccc3cnccc23)on1 (stereo unspecified) | active: 10.3 µM |  |
| COC(=O)c1cc(NC(=O)CN(c2ccccc2OC)S(=O)(=O)c2ccccc2)ccc1Cl | inconclusive: 29.1 µM [falling, single point] |  |
| O=C(/C=C/c1ccccc1)Nc1nc2n(n1)C(c1ccc(Cl)cc1)C=C(c1ccccc1)N2 (stereo unspecified) | inconclusive: 32.6 µM [activator, single point] |  |
| CCn1nnnc1SCC(=O)Nc1ccc(N(C)C)cc1 | inconclusive: 29.1 µM [activator, single point] |  |

| SMILES | Potency | activity change, negative = inhibition |
| --- | --- | --- |
| Cc1ccc(C(=O)c2nccn2C)cc1C | inconclusive: 16.4 µM [activator, partial curve] |  |
| CCN(CC)C(=O)N1CCN(S(=O)(=O)c2c(C)cc(C)cc2C)CC1 | inconclusive: 29.1 µM [falling, single point] |  |
| COc1ccc(Cc2noc(CN(C)Cc3cccc(-n4cccn4)c3)n2)cc1OC | inconclusive: 29.1 µM [falling, single point] |  |
| COc1ccccc1N1CCN(CCCNC(=O)C2CCCN(c3ncnc4c3nc3n4CCCCC3)C2)CC1 (stereo unspecified) | inconclusive: 29.1 µM [falling, single point] |  |
| COc1ccc(/C=N\NC(=O)c2ccccc2[N+](=O)[O-])cc1COc1c(F)c(F)c(F)c(F)c1F | inconclusive: 29.1 µM [activator, partial curve, poor fit] |  |
| COc1ccc(/C=N/Nc2nc(C)nc(N)n2)cc1 | inconclusive: 2.59 µM [activator, full curve, poor fit] |  |
| C/C(=N\NC(=O)c1cccc2ccccc12)c1cccnc1 |  | inactive: 0.402% |
| O=C(COc1ccccc1Cl)NC(=S)Nc1cccc(NC(=O)c2ccccc2Cl)c1 | inconclusive: 8.2 µM [falling, partial curve] |  |
| CCN(CC)c1ccc(/C=N/NC(=O)c2ccccn2)cc1 | inconclusive: 0.92 µM [activator, full curve, poor fit] |  |
| CN1CCc2c(sc(NC(=O)c3ccc(S(=O)(=O)N4CCCCCC4)cc3)c2C(N)=O)C1 | inconclusive: 25.9 µM [falling, single point] |  |
| Cc1ccc(-n2c(SCC(=O)Nc3cccc(S(N)(=O)=O)c3)nc3ccccc32)cc1 | active: 20.6 µM |  |
| O=C(Cn1cnc2ccccc21)N1CCN(S(=O)(=O)c2ccccc2)CC1 | inconclusive: 25.9 µM [falling, partial curve, poor fit] |  |
| Cn1c(=O)c2c(nc(NCCc3ccccc3)n2Cc2ccccc2Br)n(C)c1=O |  | inactive: -3.57% |
| Cc1onc(-c2ccccc2)c1C(=O)OCCOc1ccccc1F | inconclusive: 6.51 µM [activator, single point] |  |
| COc1ccc(CC(=O)OCC(=O)NCCc2ccccc2)cc1OC | inconclusive: 0.517 µM [falling, partial curve, poor fit] |  |
| C=CCn1c(N)c(C(=O)OC(C)CC)c2nc3ccccc3nc21 (stereo unspecified) | inconclusive: 9.2 µM [falling, partial curve, poor fit] |  |
| CCOc1ccc(C(=O)N(Cc2nc(-c3cccc(C)c3)no2)C(C)C)cc1 |  | inactive: -24.1% |
| Cc1ccc(C(=O)N/C(=C\c2ccccc2)C(=O)OCc2ccccc2)cc1 | inconclusive: 6.51 µM [activator, partial curve] |  |
| COc1ccc(NC(=O)COc2ccc(C)c(C)c2)cc1S(=O)(=O)N1CCCCC1 | inconclusive: 18.4 µM [falling, single point] |  |
| c1nc(NCc2ccc3c(c2)OCO3)c2[nH]cnc2n1 | inactive |  |
| Cc1nnc(SCCN2CCOCC2)c2nn(-c3ccccc3F)c(C)c12 |  | inactive: -17.8% |
| c1ccc(-c2nnc(-c3ccccc3)nn2)cc1 | inconclusive: 20.6 µM [activator, partial curve] |  |
